Results taken from article PMC3514159.
No constants are given. Whether binding was seen depends on the method and setting. Some entries that bind do so weakly or less than the wild type.

The chains behind the UniProt entries cited, without tags or fusion partners.
UniProt Q9BYR6: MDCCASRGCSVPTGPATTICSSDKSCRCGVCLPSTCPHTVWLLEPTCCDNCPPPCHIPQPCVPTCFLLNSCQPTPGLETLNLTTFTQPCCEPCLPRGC
UniProt P09022: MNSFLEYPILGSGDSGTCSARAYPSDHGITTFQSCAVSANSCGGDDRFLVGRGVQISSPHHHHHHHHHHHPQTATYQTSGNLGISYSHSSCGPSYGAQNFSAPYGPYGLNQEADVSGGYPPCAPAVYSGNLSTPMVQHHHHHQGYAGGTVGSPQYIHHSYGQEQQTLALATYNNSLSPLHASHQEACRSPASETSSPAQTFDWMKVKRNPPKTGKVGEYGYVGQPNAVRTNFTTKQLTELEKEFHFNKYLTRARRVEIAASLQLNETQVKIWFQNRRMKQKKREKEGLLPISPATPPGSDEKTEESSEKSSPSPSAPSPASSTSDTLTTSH

Key:
Assay in all cases: two-hybrid; AD-Hoxa1 (Gal4 activation domain) in MATa Y8800 mated with the DB-hORF library in MATα Y8930; 30°C; selection on Sc-L-T-H + 1 mM 3AT, retest on Sc-L-T-H, Sc-L-T-A and Sc-L-T-H-A+3AT
keratin 81 (human) = molecular target: T1, keratin 81 (human) (UniProt Q14533)
T1 sequence: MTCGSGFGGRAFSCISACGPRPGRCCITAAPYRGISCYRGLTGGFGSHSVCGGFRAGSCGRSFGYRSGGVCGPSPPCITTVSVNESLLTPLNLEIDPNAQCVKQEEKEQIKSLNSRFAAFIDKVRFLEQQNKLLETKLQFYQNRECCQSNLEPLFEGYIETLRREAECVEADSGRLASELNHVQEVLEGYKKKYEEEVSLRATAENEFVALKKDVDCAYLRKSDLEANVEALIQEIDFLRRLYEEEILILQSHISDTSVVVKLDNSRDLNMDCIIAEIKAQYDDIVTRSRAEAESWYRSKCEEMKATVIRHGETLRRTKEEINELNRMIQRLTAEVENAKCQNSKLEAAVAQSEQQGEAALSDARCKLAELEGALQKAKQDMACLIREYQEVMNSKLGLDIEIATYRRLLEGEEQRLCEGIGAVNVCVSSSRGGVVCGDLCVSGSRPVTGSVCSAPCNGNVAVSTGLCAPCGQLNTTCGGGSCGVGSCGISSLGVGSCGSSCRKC

[1] = molecular target: T2, 1-acylglycerol-3-phosphate O-acyltransferase 1 (human) (UniProt Q99943)
T2 sequence: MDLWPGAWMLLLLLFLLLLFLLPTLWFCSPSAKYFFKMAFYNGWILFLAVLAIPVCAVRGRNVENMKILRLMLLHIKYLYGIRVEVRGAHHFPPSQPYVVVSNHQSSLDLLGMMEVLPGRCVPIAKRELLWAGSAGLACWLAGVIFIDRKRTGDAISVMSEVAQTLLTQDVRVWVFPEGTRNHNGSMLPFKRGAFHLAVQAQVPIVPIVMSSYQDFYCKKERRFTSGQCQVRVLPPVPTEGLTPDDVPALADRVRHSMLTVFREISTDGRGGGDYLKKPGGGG

[2] = molecular target: T3, hydroxy-delta-5-steroid dehydrogenase, 3 β- and steroid delta-isomerase 7 (human) (UniProt Q9H2F3)
T3 sequence: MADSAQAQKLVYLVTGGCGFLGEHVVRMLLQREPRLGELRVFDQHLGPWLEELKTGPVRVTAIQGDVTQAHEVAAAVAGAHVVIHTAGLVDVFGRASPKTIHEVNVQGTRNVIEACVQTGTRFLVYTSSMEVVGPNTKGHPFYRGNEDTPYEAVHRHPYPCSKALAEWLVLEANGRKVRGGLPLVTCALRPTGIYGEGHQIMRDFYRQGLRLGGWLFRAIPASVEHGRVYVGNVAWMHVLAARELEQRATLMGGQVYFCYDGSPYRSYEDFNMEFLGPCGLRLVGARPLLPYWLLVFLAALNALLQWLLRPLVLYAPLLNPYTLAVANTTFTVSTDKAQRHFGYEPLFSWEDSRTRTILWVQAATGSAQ

[3] = molecular target: T4, zinc finger, ZZ-type containing 3 (human) (UniProt Q8IYH5)
T4 sequence: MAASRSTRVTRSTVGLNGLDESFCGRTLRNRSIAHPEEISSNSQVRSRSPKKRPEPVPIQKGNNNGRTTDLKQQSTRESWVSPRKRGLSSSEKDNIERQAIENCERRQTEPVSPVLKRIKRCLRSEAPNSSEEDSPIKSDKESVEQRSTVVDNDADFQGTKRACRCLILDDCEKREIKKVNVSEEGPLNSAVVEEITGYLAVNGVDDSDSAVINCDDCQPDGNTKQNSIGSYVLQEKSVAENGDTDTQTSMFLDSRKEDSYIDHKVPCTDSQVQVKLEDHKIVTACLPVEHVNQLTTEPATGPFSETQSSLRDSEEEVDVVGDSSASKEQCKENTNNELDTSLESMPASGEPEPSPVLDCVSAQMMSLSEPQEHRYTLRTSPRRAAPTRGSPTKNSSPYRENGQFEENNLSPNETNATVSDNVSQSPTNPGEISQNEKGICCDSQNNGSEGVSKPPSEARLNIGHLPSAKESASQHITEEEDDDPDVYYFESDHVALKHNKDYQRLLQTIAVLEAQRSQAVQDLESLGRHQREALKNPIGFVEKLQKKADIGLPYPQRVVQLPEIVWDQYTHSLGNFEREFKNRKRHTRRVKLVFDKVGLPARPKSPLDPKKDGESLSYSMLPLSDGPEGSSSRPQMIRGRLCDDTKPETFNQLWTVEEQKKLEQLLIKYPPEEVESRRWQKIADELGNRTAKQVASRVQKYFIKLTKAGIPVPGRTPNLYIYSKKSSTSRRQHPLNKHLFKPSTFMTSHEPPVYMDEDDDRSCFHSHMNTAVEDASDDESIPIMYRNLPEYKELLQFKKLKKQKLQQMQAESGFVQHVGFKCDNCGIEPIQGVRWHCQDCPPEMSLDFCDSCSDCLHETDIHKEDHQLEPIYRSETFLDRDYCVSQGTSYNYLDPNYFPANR

[4] = molecular target: keratin associated protein 3-3 (human) (UniProt Q9BYR6)

binding (keratin 81 (human)): binds | binding [1]: binds | binding [2]: binds | binding [3]: binds | binding [4]: binds
Substance: Hoxa1 (from UniProt P09022 1-331)
